Measurements published in article doi:10.1101/077586.
Results are given in words; binding and its absence hold for the method and conditions named. Binding seen in cells or lysates may run through a third protein. Some entries that bind do so weakly or less than the wild type.

The chains behind the UniProt entries cited, without tags or fusion partners.
UniProt Q61327: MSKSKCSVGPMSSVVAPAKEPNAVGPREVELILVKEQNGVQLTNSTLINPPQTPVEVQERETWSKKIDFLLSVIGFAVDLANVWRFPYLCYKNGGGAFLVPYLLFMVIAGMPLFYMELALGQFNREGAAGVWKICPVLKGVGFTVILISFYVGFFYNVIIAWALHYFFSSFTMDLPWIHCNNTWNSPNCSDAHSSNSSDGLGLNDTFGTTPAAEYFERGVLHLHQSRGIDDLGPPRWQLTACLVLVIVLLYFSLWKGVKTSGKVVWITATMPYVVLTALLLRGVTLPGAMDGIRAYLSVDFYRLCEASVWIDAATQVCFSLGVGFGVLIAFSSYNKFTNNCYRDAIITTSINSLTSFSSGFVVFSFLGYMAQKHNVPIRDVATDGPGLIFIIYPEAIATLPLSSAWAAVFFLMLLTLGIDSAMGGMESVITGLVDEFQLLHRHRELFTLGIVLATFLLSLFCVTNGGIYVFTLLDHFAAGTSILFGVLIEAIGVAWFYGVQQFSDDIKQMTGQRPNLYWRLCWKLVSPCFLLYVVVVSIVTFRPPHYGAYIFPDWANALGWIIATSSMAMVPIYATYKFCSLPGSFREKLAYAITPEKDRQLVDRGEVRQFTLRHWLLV
UniProt P24529: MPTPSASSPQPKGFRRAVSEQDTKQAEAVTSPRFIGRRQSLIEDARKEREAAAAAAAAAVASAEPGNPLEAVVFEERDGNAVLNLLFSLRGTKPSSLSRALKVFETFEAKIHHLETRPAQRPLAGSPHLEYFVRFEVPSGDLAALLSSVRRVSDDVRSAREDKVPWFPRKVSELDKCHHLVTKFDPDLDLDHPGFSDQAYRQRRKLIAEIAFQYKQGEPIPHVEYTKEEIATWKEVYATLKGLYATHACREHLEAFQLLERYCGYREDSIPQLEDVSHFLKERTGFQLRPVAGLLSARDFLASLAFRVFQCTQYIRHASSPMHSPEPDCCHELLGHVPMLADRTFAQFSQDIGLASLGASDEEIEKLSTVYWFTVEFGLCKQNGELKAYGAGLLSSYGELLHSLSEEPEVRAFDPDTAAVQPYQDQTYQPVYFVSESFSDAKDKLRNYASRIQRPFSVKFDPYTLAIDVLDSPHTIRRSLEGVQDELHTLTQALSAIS
UniProt P46096: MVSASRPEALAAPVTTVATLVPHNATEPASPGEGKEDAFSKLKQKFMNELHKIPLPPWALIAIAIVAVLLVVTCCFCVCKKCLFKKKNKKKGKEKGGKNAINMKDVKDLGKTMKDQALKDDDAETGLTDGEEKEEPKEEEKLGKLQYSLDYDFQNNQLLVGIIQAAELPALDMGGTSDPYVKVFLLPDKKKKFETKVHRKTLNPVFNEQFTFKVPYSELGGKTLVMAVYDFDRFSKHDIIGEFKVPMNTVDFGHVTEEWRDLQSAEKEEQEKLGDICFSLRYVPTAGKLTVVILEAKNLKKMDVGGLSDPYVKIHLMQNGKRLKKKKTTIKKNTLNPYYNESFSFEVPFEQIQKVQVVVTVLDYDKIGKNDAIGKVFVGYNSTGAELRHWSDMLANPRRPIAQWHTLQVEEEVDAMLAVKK

Target: T1, synaptic vesicle glycoprotein 2C (mouse (endogenous in striatum of WT C57BL/6 mice)) (UniProt Q69ZS6)
T1 sequence: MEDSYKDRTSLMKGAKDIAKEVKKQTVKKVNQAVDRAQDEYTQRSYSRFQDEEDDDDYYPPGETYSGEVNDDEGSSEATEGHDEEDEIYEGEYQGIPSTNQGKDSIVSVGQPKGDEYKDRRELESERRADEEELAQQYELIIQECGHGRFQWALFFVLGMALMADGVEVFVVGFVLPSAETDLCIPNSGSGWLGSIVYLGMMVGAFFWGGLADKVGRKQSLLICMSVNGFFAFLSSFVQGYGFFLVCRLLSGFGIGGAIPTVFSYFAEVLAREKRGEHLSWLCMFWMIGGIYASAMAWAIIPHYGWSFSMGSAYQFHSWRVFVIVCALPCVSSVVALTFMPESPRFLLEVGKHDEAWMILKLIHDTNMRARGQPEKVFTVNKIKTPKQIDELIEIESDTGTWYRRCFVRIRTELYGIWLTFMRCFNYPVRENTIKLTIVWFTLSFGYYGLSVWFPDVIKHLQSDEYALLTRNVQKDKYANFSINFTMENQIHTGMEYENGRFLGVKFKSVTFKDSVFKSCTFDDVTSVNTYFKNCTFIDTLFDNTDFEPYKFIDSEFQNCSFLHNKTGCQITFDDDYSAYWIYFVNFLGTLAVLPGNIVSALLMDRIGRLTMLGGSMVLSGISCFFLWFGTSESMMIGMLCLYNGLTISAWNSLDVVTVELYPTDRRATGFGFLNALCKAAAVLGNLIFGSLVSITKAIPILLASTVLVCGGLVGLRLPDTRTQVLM
Assay: co-IP

| binding | Substance |
| --- | --- |
| no binding | dopamine transporter (from UniProt Q61327 1-619) |
| no binding | tyrosine hydroxylase (from UniProt P24529 1-498) (enzyme) |
| binds | Synaptotagmin-1 (from UniProt P46096 1-421) |
